Experimental data as given in patent publication US20230219886A1, “NOVEL SELENO-NSAID ANALOGS AND USES THEREOF” (THE PENN STATE RESEARCH FOUNDATION, priority 2020, published 2023).
Some entries share one result that the patent states for a list of compounds.

Assays:
[1] = test system: PANC-1, HT-29, DU-145 and H1299 human tumor cell lines; assay: MTT assay, panel of four human tumor cell lines; assay type: cell-based; details: 25 μM, 48 h, in at least one cell line
HT-29 cells = assay: Annexin V & Dead cell apoptosis assay; assay type: cell-based, human; details: HT29, 5 μM, 24 h
Procedure: Apoptosis assay. Induction of apoptosis after the treatment with compounds 1a and 6a were analyzed using Annexin V & Dead cell assay kit and Caspase 3/7 Assay kit (EMD Millipore, Billercia, Mass.) using Muse cell analyzer following manufacturer's protocol. Briefly, the HT-29 cells were plated in triplicates in a six-well plate at densities of 1×10^5 cells/well. Following day, the cells were treated with the compounds 1a and 6a and incubated for 48 h. At the end of the treatment duration, the cells were prepared following manufacturer's guidelines and the data were acquired using Muse 1.4 software.
Compounds 1a and 6a induced apoptosis in CRC cells. We further investigated whether the inhibition of cell cycle leads to apoptosis. In pursuit of this, HT29 cells were treated with 5 μM of the compounds 1a and 6a for indicated time intervals. Apoptosis was measured by using Annexin V & Dead cell assay kit and Caspase 3/7 Assay kit using Muse cell analyzer following manufacturer's protocol. The live cell population resided in the lower left quadrant and they start shifting towards the lower right quadrant (early apoptotic) or to upper right quadrant (late apoptotic/dead) after treatments. […] A similar trend was also observed after 6a treatment where the live cell population were decreased from <75% to <65% after 12 h and 24 h treatment, respectively.

HT-29 (CRC) = assay: MTT cell viability assay, HT-29; details: HT-29, 5 μM, 48 h
Procedure: Cell Culture Conditions. The cell lines were obtained from the American Type Culture Collection (ATCC). PANC-1 and Caco-2 cell lines were maintained in DMEM medium (Gibco); HT-29, HCT-116 and RKO cells were maintained in McCoy's 5A medium (Gibco); and DU-145 and H1299 cells were maintained in RPMI 1640 medium (Gibco), supplemented with 10% fetal bovine serum (FBS; Gibco) and 1% antibiotics (10.00 units/mL penicillin and 10.00 mg/mL streptomycin; Gibco). Cells were preserved in tissue culture flasks at 37° C. and 5% CO2. Culture medium was replaced every three days.
Cell Viability Assay. The effect of each compound on cell viability was tested using the MTT assay (81). Briefly, 9000 cells/well were grown in 96-well plates for 12 h. Then these cells were incubated with either DMSO (control) or nine different concentration between 0.01-50 μM of the test compounds for 24, 48, and 72 h. Three hours before the termination point, 20 μL of MTT were added to measure cellular viability. The resultant formazan crystals were dissolved in 50 μL of DMSO, and absorbance was measured at 570 nm and 630 nm wavelengths. IC50, GI50, TGI and LC50 values were calculated using OriginPro 8.5.1.
Evaluation of the antiproliferative activities of the novel molecules. […] These four cell lines were treated with each compound at three concentrations (5, 25 and 50 μM) for 48 h.

| Compound | reduction of the cell growth [1] [%] | live cells (HT-29 cells) [%] | reduction of the cell growth (HT-29 (CRC)) [%] |
| --- | --- | --- | --- |
| C[Se]C(=O)c1ccccc1Nc1cccc(C)c1C [Compound 4a, Se-methyl 2-((2,3-dimethylphenyl)amino)benzoselenoate] | > 70 |  |  |
| C[Se]C(=O)c1cc(-c2ccc(F)cc2F)ccc1O [Compound 2a, Se-methyl 2′,4′-difluoro-4-hydroxy-[1,1′-biphenyl]-3-carboselenoate] | > 70 |  |  |
| C[Se]C(=O)c1ccccc1OC(C)=O [Compound 1a, 2-((methylselanyl)carbonyl)phenyl acetate] | > 70 | < 65 | > 70 |
| COc1ccc2c(c1)c(CC(=O)[Se]C)c(C)n2C(=O)c1ccc(Cl)cc1 [Compound 5a, Se-methyl 2-(1-(4-chlorobenzoyl)-5-methoxy-2-methyl-1H-indol-3-yl)ethane-selenoate] | > 70 |  | > 70 |
